Results are given in words; binding and its absence hold for the method and conditions named. Binding seen in cells or lysates may run through a third protein. Some results given as binding are weak or reduced against the parent protein; the word gives no strength.
Target: voltage dependent potassium channel KV11.1 (human (endogenous in PANC-1)) (UniProt Q12809)
Test: co-IP; PANC-1 total lysate (1.5 mg), precleared with Protein A/G Plus-Agarose, 4 °C; cells seeded 90 min on polylysine, FN or DM plus Hypo-PSC-CM; legend: IP with anti-hERG1 mAb, blots with anti-KV11.1 or anti-β1 antibody (methods: IP with mAb-β1)

Protein sequences, listed by entry. Tags and fused reporters are not part of them. Lines headed by an entry give the natural chain unless they say otherwise; changes in a name come on top.
UniProt Q12809: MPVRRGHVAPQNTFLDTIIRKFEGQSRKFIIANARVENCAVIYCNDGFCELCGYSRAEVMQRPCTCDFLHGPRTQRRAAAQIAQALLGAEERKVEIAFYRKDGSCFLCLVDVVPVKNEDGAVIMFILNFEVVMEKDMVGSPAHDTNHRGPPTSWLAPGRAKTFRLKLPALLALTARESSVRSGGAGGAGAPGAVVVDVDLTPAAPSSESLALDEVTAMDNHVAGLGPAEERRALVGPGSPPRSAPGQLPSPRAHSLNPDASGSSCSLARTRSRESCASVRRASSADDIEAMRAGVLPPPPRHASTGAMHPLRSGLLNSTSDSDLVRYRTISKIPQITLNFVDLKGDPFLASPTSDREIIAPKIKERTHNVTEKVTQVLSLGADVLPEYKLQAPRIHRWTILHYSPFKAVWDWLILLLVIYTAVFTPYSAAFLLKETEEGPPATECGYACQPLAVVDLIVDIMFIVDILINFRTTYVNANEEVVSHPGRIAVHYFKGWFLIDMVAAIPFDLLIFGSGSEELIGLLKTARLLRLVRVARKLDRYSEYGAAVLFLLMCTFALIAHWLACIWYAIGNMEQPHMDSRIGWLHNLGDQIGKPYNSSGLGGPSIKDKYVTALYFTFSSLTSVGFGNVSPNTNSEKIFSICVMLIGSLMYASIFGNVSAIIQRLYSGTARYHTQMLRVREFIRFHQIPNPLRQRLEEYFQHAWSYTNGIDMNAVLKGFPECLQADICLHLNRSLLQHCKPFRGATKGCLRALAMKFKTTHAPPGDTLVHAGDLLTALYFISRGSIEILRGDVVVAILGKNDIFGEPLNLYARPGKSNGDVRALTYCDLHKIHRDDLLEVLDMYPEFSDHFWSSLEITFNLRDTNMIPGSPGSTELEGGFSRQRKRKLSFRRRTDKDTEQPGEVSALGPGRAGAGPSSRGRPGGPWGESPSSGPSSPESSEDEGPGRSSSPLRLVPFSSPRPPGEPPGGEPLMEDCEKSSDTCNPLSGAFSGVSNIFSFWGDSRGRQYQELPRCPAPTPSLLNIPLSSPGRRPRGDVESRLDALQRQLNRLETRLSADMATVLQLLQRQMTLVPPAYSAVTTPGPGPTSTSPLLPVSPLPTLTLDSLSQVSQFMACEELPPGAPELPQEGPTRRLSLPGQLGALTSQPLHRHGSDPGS
UniProt P05556: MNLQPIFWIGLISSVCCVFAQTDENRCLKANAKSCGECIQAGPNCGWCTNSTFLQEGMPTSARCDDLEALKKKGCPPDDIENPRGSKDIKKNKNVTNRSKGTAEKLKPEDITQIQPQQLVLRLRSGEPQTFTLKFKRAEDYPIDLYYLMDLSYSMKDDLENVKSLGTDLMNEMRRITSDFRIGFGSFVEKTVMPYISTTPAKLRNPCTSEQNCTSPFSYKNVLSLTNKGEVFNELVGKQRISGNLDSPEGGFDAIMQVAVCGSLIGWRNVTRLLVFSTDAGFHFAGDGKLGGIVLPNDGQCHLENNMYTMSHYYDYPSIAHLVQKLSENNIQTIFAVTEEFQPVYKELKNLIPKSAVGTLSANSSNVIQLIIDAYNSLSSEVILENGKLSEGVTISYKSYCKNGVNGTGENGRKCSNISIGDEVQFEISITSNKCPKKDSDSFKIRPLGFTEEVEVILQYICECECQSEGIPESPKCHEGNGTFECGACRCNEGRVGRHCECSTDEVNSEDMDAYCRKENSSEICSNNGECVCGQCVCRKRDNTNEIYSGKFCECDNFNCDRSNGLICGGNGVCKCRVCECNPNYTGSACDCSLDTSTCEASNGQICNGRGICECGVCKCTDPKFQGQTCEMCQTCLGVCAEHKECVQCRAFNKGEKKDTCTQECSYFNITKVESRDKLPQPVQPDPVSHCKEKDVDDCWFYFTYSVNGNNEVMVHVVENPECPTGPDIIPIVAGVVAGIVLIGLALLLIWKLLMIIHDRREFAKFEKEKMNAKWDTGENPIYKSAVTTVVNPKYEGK

## β1 integrin (from UniProt P05556 21-798) (receptor)
  binding: binds

— article PMC6406627
